The values that follow come from PubChem BioAssay AID2685 (National Center for Advancing Translational Sciences (NCATS), 2010).

This is one part of the list. Further columns of the screen follow, without active or inactive calls. Compounds called inactive in the main read-out are mostly missing here. Potencies come from curve fits of mixed quality, noted in brackets.

A short description of the assay: qHTS Assay for Lipid Storage Modulators in Drosophila S3 Cells.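 For cell number change: cells counted by Cell Tracker Red CMTPX staining in the red channel.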 The settings on record: BODIPY lipid droplet fluorescence, 18-24 h; for cell number change: measured here: cell count max response, cells fed with added oleic acid. The procedure, abridged:
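Laser-scanning cytometry quantifies lipid droplet accumulation (500–530 nm total intensity; droplet/cell object ratio) in oleic acid-fed (400 uM added) Drosophila S3 cells treated with a concentration series. 20 uM Triacsin C defined 100% inhibition.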
(Quantitative high-throughput screening tests each substance at several concentrations.)

Setting [1] is: measured here: cell number channel AC50, cells fed with added oleic acid.
The mark [2] stands for this setting: measured here: lipid fluorescence (Fed channel) AC50, cells fed with added oleic acid.

In general, AC50 refers to the concentration at which the activity in the assay is half-maximal. Low values mean greater potency, high ones weaker potency. In the case of `Cc1cc(OCC(=O)N2CCOCC2)ccc1NC(=O)C1CCCCC1`, the cell number change worked out at 9.49%. For the same compound, the AC50 under setting [1] is 2.06 µM [rising, partial curve]. In the case of `Cn1c(SCc2ccc(C(C)(C)C)cc2)nnc1C1COc2ccccc2O1` (stereo not given), the cell number change was -32.9%. In addition, under setting [1], the half-maximal activity concentration (AC50) was 29.1 µM [falling, single point]. In addition, the AC50 under setting [2] was 16.4 µM [falling, single point]. As to `O=C(CSc1ncccn1)N/N=C/c1ccc(OC2CSC2)cc1`, the cell number change amounted to 39.1%. Further, under setting [1], the half-maximal activity concentration (AC50) was 25.9 µM [rising, single point]. Consider `CN(C)CCCNc1ncnc2c1cnn2Cc1ccccc1Cl`, for which the cell number change amounted to 8.33%.

For the compound `Cc1nc(NC2=NCN(Cc3cccnc3)CN2)nc2c(C)cccc12`, the cell number change is -2.23%. For the same compound, under setting [2], the AC50 was 20.6 µM [falling, partial curve]. For the compound `COc1ccc(C(=O)Nc2nncs2)c(OC)c1`, the cell number change is -0.759%. Also, the AC50 under setting [2] is 4.61 µM [rising, full curve]. Turning to `Cc1nn(-c2ncc(C(F)(F)F)cc2Cl)c(=O)n1-c1ccc(F)cc1`, the cell number change is -0.57%. For the same compound, under setting [1], the AC50 was 2.59 µM [rising, single point]. Also, the AC50 under setting [2] was 4.61 µM [rising, single point]. Consider `Cc1ccc(C)c(OCC(O)CN2CCC(Cc3ccccc3)CC2)c1` (stereo not given), for which the cell number change is -11.8%. For `O=C(CN1CCOCC1)Nc1cc(C(F)(F)F)ccc1Cl`, the cell number change was -19.9%. Moreover, the AC50 under setting [1] is 4.11 µM [falling, partial curve, poor fit]. In the case of `Cc1cc(N/N=C\c2ccc(Br)cc2)nc(-n2nc(C)cc2C)n1`, the cell number change is -66.6%. For the same compound, the AC50 under setting [1] is 20.6 µM [falling, partial curve]. The AC50 under setting [2] was 18.4 µM [falling, partial curve]. On to `CCOC(=O)C1(CCOc2ccccc2)CCN(Cc2ccc(O)c(Cl)c2)CC1`, for which the cell number change was found to be 18.9%. The AC50 under setting [2] was 0.00461 µM [falling, full curve, poor fit]. As to `CC(=O)N1CCN(S(=O)(=O)c2cccc(C(=O)N(Cc3ccccc3)c3cccc(C)c3)c2)CC1`, the cell number change turned out to be 39%. Further, the AC50 under setting [1] is 3.66 µM [rising, partial curve, poor fit]. As for `CCOc1ccc(CCNC(=O)c2ccc3nc(CC)c(CC)nc3c2)cc1`, the cell number change amounted to 48%. In addition, the AC50 under setting [1] was 29.1 µM [rising, single point]. In addition, the AC50 under setting [2] is 29.1 µM [rising, single point]. Take `COCCn1c(SCC(=O)NCc2ccc3c(c2)OCO3)nnc1-c1c[nH]c2ccccc12`: the cell number change was 34.7%. Also, the AC50 under setting [1] was 5.8 µM [rising, full curve, poor fit]. For the same compound, under setting [2], the AC50 is 9.2 µM [rising, partial curve, poor fit]. As to `C=CCNc1nnc(Cc2ccc(C(C)C)cc2)c(=O)[nH]1`, the AC50 under setting [2] was 0.0366 µM [rising, full curve, poor fit]. Regarding `Cc1cc(C)c(C#N)c(Sc2nnnn2-c2ccccc2)n1`, the AC50 under setting [2] was 5.17 µM [rising, partial curve].

`O=C(/C=C/c1ccco1)Nc1ccccc1C(=O)Nc1cccc(C(=O)O)c1`: the cell number change came to 17%. In the case of `COc1ccc(C(CNC(=O)CCOc2ccccc2)N(C)C)cc1` (stereo not given), the cell number change was determined as 54%. Further, the AC50 under setting [1] was 29.1 µM [rising, single point]. Regarding `CC[C@H](C)[C@H](NC(=O)OCc1ccccc1)C(=O)Nc1ccc(NC(C)=O)cc1`, the AC50 under setting [1] is 3.26 µM [rising, single point]. Take `Cc1cc(C)c(NC(=O)CNC(=O)CSc2nnc(N)s2)c(C)c1`: the cell number change is -6.02%. Consider `Cc1ccc2c(Cl)cc(Cl)c(OCC(=O)NC(C)(C)C)c2n1`, for which the cell number change was 9.34%. Further, the AC50 under setting [1] is 4.61 µM [rising, single point]. With `C=CCc1cccc2cc(C(=O)OCC(=O)c3ccccc3)c(=O)oc12`, the AC50 under setting [1] was 1.46 µM [rising, partial curve]. On to `O=C(CCC(=O)OCCCC(F)(F)C(F)(F)F)Nc1ccccc1`, for which the cell number change was determined as 4.98%. Regarding `O=C(Nc1cccc(S(=O)(=O)N2CCCCC2)c1)C1=NN(c2ccccc2)C(=O)CC1`, the cell number change is -9.83%. Besides, under setting [2], the AC50 was 8.2 µM [falling, partial curve, poor fit]. `COc1ccc(-c2nc3ccccc3c(=O)o2)cc1OC`: the cell number change is -28.5%. For the same compound, the AC50 under setting [2] was 25.9 µM [falling, partial curve]. Turning to `CC(Nc1ccc(Br)cc1)C(=O)N/N=C/c1ccccc1OCc1ccccc1` (stereo not given), the AC50 under setting [1] is 1.84 µM [rising, partial curve, poor fit]. Consider `O=C1CCC(C(=O)Nc2nnc(C3CC3)s2)=NN1`, for which the AC50 under setting [1] was 1.46 µM [rising, partial curve, poor fit]. Take `COc1ccc(CCNC(=O)CCC(=O)N2CC(C)Oc3ccccc32)cc1OC` (stereo not given): the cell number change was -16.7%. With `CC(Sc1ccc(Cl)cc1)C(=O)NCc1cccnc1` (stereo not given), the cell number change was 93.2%. The AC50 under setting [1] is 10.3 µM [rising, partial curve]. Besides, the AC50 under setting [2] is 8.2 µM [rising, partial curve]. As for `Cc1ccc(NC(=O)c2ccc3c(SCC(=O)O)c4c(nc3c2)CCCC4)c(Br)c1`, the cell number change was -39%. The AC50 under setting [1] was 32.6 µM [falling, single point]. In the case of `Cc1cc2cc(CNC(=O)c3ccc(S(=O)(=O)N(C)C)cc3)ccc2n1C`, the half-maximal activity concentration (AC50) under setting [2] is 20.6 µM [rising, partial curve]. Consider `COC(=O)c1cc(C(=O)N2CCN(c3cccc(C)c3C)CC2)cc([N+](=O)[O-])c1`, for which the cell number change was found to be 30.1%. Consider `CN(CCO)C(=O)c1cccc2c1-c1ccccc1C2=O`, for which the cell number change stood at 5.27%. Further, the AC50 under setting [2] is 0.291 µM [falling, full curve]. Turning to `O=C(NCCc1ccccc1Cl)C1CCN(S(=O)(=O)c2cccs2)CC1`, the cell number change came out at 5.97%. Moreover, the AC50 under setting [1] was 0.082 µM [rising, full curve, poor fit]. Besides, the AC50 under setting [2] was 0.58 µM [rising, single point].

As to `C=CCn1c(SCc2csc(-c3ccc(Cl)cc3)n2)nnc1-c1ccccc1OC`, the cell number change is -33.1%. Besides, the AC50 under setting [1] is 29.1 µM [falling, single point]. In addition, the AC50 under setting [2] was 29.1 µM [falling, single point].

For `CC(=O)c1c(C)[nH]c(C(=O)OCC(=O)NCCc2ccc(F)cc2)c1C`, the cell number change is -22.3%. Further, the AC50 under setting [2] is 16.4 µM [falling, partial curve, poor fit].

In the case of `Cc1cc(C)c(C#N)c(N2CCN(Cc3ccc4c(c3)OCO4)CC2)n1`, the cell number change came to 0.87%. The AC50 under setting [2] was 7.31 µM [rising, partial curve]. For the compound `CCOCC(=O)Nc1nc2ccc(OCC)cc2s1`, under setting [2], the AC50 is 0.651 µM [rising, single point]. As for `CC(C)NC(=O)c1cc(-c2ccc3c(c2)OCO3)on1`, under setting [1], the AC50 was 0.146 µM [rising, full curve, poor fit].
